Measured values reported in PubChem BioAssay AID485314 (National Center for Advancing Translational Sciences (NCATS), 2010).
About 4,500 (1.3%) of roughly 340,000 compounds were called active. Inconclusive means that the source gave no clear call. Such entries were picked first, then a sample of the others. Calls come from the whole dose curve; as a rule, active = well fitted inhibition curve with a large enough effect; inconclusive = small, poorly fitted or top-dose-only effect, or another doubt; inactive = no such curve, though single readings can be large or run the other way. Potencies of inconclusive entries are doubtful fits and often do not repeat.

Molecular target: DNA polymerase beta (Homo sapiens) (UniProt P06746)
Assay: qHTS Assay for Inhibitors of DNA Polymerase Beta
Details: Pol beta primer extension/strand displacement, fluorescence kinetic; activity change, negative = inhibition: at 114 µM (top of the series)
In short: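 Kinetic readout of DNA synthesis with strand displacement by Pol beta. Compound and 10 nM enzyme sit 15 min at room temperature; 50 nM substrate starts the reaction, read immediately and at 10 min.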
% is set by controls: 0 for no effect and ±100 for the full control effect; potency is the fitted concentration of half-maximal effect.

Potency, inconclusive:
COc1ccc(NC(=O)c2ccco2)cc1NC(=O)COc1ccc(C)cc1C 79.4 µM [inhibitor, single point], Clc1ccc(CSc2nc3ncccc3[nH]2)cc1 39.8 µM [inhibitor, partial curve], Cc1nn(Cc2ccccc2)c(C)c1C(=O)OCC(=O)c1cc(C)n(C2CC2)c1C 22.4 µM [inhibitor, partial curve], COc1ccc(/C=N/NC(=O)CSc2ccccc2)cc1OC 79.4 µM [inhibitor, single point], Cc1ccc(NC(=O)Cc2ccc(NC(=O)N3CCCCc4ccccc43)cc2)cc1 89.1 µM [inhibitor, single point], CC(=O)c1ccc(N2CCN(C(=O)Nc3cccc(F)c3)CC2)cc1 44.7 µM [inhibitor, partial curve, poor fit], CC(/C=N/NC(=O)c1cc(-c2cccn2C)n[nH]1)=C\c1ccccc1 2.82 µM [inhibitor, full curve], COC1=C(Nc2ccc(C)cc2)C(=O)c2ccccc2C1=O 56.2 µM [inhibitor, partial curve], Cc1cccc(N2CCN(c3ccc(C(=O)O)cc3NC(=O)c3ccccc3F)CC2C)c1 (stereo not given) 50.1 µM [inhibitor, partial curve], CN1CCC(N(C)C(=O)COc2ccccc2-c2ccccc2)CC1 39.8 µM [inhibitor, single point], Cc1[nH]n(-c2ccccc2)c(=O)c1C=Nc1cnc2ccccc2c1 50.1 µM [inhibitor, partial curve], CN1C(=O)/C(=C2/C=Cc3ccccc3N2CCCS(=O)(=O)O)SC1=S 1 µM [inhibitor, full curve]

Potency, active:
CSc1cccc(NC(=O)Cn2nnc(C(=O)NCCc3ccccc3)c2N)c1 25.1 µM, Cc1ncc(CO)c2c1Oc1nc(-c3ccccc3)nc(SCC(=O)N(C)c3ccccc3)c1C2 56.2 µM

Activity change, negative = inhibition, inconclusive:
Nc1ccc(-c2nc3cc([N+](=O)[O-])ccc3o2)cc1 -66.1% [inhibitor]

Activity change, negative = inhibition, inactive:
CCCCOC(=O)Nc1ccc(C(=O)OC)cc1 -3.78%, CCN(CC)c1ccc(C(=O)NCc2ccc3c(c2)CCN3C(C)=O)cc1 -18.3%, CC(C)CC(=O)Nc1c(C(=O)N2CCN(c3ccccc3F)CC2)oc2ccccc12 -9.35%, COc1ccc(/C=C/C(=O)NC(=S)Nc2ccc(S(=O)(=O)Nc3cc(OC)ncn3)cc2)cc1 4.44%, O=C(N/N=C/c1cccnc1)c1ccccc1Cl -29%
